According to ChEMBL document CHEMBL5046241, “The novel therapeutic strategy of vilazodone-donepezil chimeras as potent triple-target ligands for the potential treatment of Alzheimer's disease with comorbid depression” (Eur J Med Chem, 2022):

Assay: in vitro
Details: PAMPA

COc1cc2c(cc1OC)C(=O)C(CC1CCN(Cc3ccccc3)CC1)C2 (stereo unspecified) [DONEPEZIL]
Papp: 2.1 ×10⁻⁶ cm/s
